Data: EP3272768A1, “CHIMERIC PEPTIDES USEFUL IN MALARIA PROPHYLAXIS OR TREATMENT” (priority 2016, dated 2018)
At least one peptide structure holds a part that was inferred or is arguable (an end, a ring closure or a residue). Peptide text beside a SMILES is read from it.

Tested on: erythrocytic stage of P. falciparum
Assay: growth inhibition assay, erythrocytic stage (SYBR Green I, flow cytometry)
Type: cell-based
Conditions: in vitro; 100 µM to 48 nM; 48 h; starting parasitemia 0.5%, haematocrit 1%; Figure 3

Structure (SMILES): CC[C@H](C)[C@H](NC(=O)[C@H](CCCCN)NC(=O)[C@@H](NC(=O)[C@H](CCC(=O)O)NC(=O)[C@H](C)NC(=O)[C@H](CCCCN)NC(=O)[C@@H](NC(=O)[C@H](CCCCN)NC(=O)[C@H](CCCCN)NC(=O)[C@H](CCCCN)NC(=O)[C@H](CCCCN)NC(=O)[C@@H](N)C(C)C)[C@@H](C)CC)[C@@H](C)CC)C(=O)O [DPT-Sh1, VKKKKIKAEIKI, reference compound] (H-VKKKKIKAEIKI-OH)
- inhibitory activity on blood stages of P. falciparum: did not show any activity
